# Assay results reported in PubChem BioAssay AID1671190 (National Center for Advancing Translational Sciences (NCATS), 2021).
# The chains behind the UniProt entries cited, without tags or fusion partners.
# UniProt P18054, whole entry: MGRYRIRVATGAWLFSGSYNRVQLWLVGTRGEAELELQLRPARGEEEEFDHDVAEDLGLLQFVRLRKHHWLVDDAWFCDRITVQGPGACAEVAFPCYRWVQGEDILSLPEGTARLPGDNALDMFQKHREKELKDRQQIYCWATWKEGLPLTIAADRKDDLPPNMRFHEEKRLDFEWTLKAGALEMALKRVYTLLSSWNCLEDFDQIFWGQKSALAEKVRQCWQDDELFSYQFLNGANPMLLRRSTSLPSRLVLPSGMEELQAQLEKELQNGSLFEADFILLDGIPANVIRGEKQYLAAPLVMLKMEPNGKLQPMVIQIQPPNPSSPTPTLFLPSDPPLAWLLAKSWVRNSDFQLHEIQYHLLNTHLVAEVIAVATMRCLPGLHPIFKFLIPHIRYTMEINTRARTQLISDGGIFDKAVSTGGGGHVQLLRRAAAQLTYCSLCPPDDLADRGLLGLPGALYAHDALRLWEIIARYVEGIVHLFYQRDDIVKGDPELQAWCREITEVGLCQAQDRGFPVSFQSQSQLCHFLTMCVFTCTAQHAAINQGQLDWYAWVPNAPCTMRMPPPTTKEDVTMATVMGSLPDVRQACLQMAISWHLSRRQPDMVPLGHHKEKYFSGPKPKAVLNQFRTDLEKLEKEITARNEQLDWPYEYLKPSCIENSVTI
# “And” between values parts separate entries of the source, which are not always exact repeats. Equal values may be shown once. Among all 580,000 compounds or so, about 6,100 (1.1%) were called active. The shares of active, inactive and inconclusive entries below differ from those in the screen. The call rests on the fitted dose curve; in most records, active means well fitted inhibition curve with a large enough effect; inconclusive means small, poorly fitted or top-dose-only effect, or another doubt; inactive means no such curve, though single readings can be large or run the other way. Potencies of inconclusive entries are doubtful fits and often do not repeat.
# Biological target: Polyunsaturated fatty acid lipoxygenase ALOX12 (Homo sapiens) (UniProt P18054)
# Test: Primary qHTS assay for inhibitors of human arachidonate 12S-lipoxygenase (ALOX12): Round 2
# Conditions: purified 12hLO, xylenol orange hydroperoxide absorbance; series mostly up to 108 µM
# How it was run: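 Purified human 12hLO at 150 nM in 25 mM Hepes, 0.01% Triton X-100, pH 7.0, preincubated 15 min at room temperature with compound. Reaction started with 40 uM arachidonic acid, 30 min at room temperature. Hydroperoxide measured by Fe-xylenol orange, 573/405 nm absorbance ratio.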
# Potency means the concentration at half of the fitted maximal effect.
row,Structure (SMILES),Potency
1,CN1CCN(CC#CCOc2ccc(Cl)cc2)CC1,"inconclusive: 0.631 µM [inhibitor, full curve]"
2,CCCCN1C(=N)C(CC)(CC)C(=O)NC1=O,inactive
3,CCOC(=O)C1=Nc2ccccc2/C1=C\c1c(O)n(C)c(=O)n(C)c1=O,"inconclusive: 35.5 µM [inhibitor, single point]"
4,Cc1ccsc1C(=O)C1CCCN(Cc2c(C)nn(C(C)C)c2C)C1 (centres undefined),"inconclusive: 50.1 µM [inhibitor, partial curve, poor fit]"
5,Nc1ccc2c(c1)Cc1ccccc1-2,inactive
6,Cc1[nH]c2ccccc2c1CCCNC1CCCCC1,inactive
7,O=C(NC1CCCCC1)N1C[C@@H]2C[C@H](C1)c1c(-c3cccs3)ccc(=O)n1C2,"inconclusive: 35.5 µM [inhibitor, full curve]"
8,C=CCn1c(O)c(C(CC)=Nc2ccc(C(=O)O)cc2)c(=O)[nH]c1=O,"inconclusive: 35.5 µM [inhibitor, partial curve, poor fit]"
9,CN1CC2(Cc3c1ccc1ccccc31)C(=O)NC(=O)N(CCc1ccccc1)C2=O (centres undefined),"inconclusive: 35.5 µM [inhibitor, partial curve, poor fit]"
10,Cc1ccccc1-c1ccc2n(c1=O)C[C@H]1C[C@@H]2CN(C(=O)NC2CCCCC2)C1,inactive
11,COc1ccc(-n2nnnc2C(c2cc3ccccc3o2)N2CCC(n3c(=O)[nH]c4ccccc43)CC2)cc1 (centres undefined),inactive
12,COc1ccc2c(c1)CC1(CN2C)C(=O)NC(=O)N(CCc2ccccc2)C1=O (centres undefined),active: 39.8 µM
13,CC(=NCCN1CCCCC1)c1c(O)n(-c2ccc(Cl)cc2)c(=O)[nH]c1=O,"inconclusive: 44.7 µM [inhibitor, partial curve, poor fit]"
14,CC(Cc1ccco1)NCc1cc2ccccc2o1 (centres undefined),"inconclusive: 39.8 µM [inhibitor, partial curve]"
15,CN1CCN(c2oc(-c3ccc(COc4ccccc4)o3)nc2C#N)CC1,inactive
16,Fc1ccccc1N1CCN(Cc2ccc3c(c2)OCO3)CC1,"inconclusive: 1.58 µM [inhibitor, full curve, poor fit]"
17,COc1ccc(O)c(CN2CCCC(C(=O)c3ccccc3SC)C2)c1 (centres undefined),"inconclusive: 56.2 µM [inhibitor, partial curve, poor fit]"
18,CCOC(=O)c1cc2c(cn1)[C@@H](CCO)NC2,inactive
19,Cn1nccc1CN1CCCC2(CC(c3ccccn3)=NO2)C1 (centres undefined),inactive
20,O=C(COc1ccccc1)N1CCN(CC2CC3C=CC2C3)CC1 (centres undefined),"inconclusive: 0.631 µM [inhibitor, full curve, poor fit]"
21,CS(=O)(=O)c1ccc(C2=C(CNC(=O)c3cccnc3)[C@H]3CC[C@@H](C2)N3Cc2ccccc2)cc1,"inconclusive: 12.6 µM [inhibitor, partial curve, poor fit]"
22,CCN(C(=O)CN1CC=C(c2ccccc2)CC1)C1CCS(=O)(=O)C1 (centres undefined),inactive

# Taken from above:
# Entry for CCOC(=O)C1=Nc2ccccc2/C1=C\c1c(O)n(C)c(=O)n(C)c1=O under Potency: inconclusive: 35.5 µM [inhibitor, single point]
# Entry for CC(=NCCN1CCCCC1)c1c(O)n(-c2ccc(Cl)cc2)c(=O)[nH]c1=O under Potency: inconclusive: 44.7 µM [inhibitor, partial curve, poor fit]

# Later entries.

row,Structure (SMILES),Potency
1,CN1CCC(n2nccc2N)CC1,inactive
2,N#Cc1ccc2nc(-c3ccc(CN4CCC(n5c(=O)[nH]c6cc(Cl)ccc65)CC4)cc3)c(-c3ccccc3)nc2c1,"inconclusive: 50.1 µM [inhibitor, partial curve, poor fit]"
3,COc1ccc(CN2C(=O)NC(=O)/C(=C\c3ccco3)C2=O)cc1,active: 39.8 µM
4,c1cncc(CNCCc2c[nH]c3ccccc23)c1,inactive
5,c1cc2nc(C3CCNCC3)[nH]c2cn1,"inconclusive: 7.94 µM [inhibitor, full curve, poor fit] and inconclusive: 10 µM [inhibitor, full curve]"
6,Cc1cc(OC(=O)N(C)C)nc(SCc2c(Cl)cccc2Cl)n1,"inconclusive: 112 µM [inhibitor, single point]"
7,O=c1[nH]c(=S)[nH]c(O)c1N=Nc1cc(S(=O)(=O)Nc2ccc(Cl)cc2)ccc1Cl,"inconclusive: 22.4 µM [inhibitor, full curve, poor fit]"
8,Cc1cc(N2CCNC[C@@H]2C)ccc1N1CC[C@H](O)C1,active: 44.7 µM
9,CNCc1ccc2c(c1)OCO2,"inconclusive: 0.582 µM [inhibitor, partial curve]"
10,O=C(Cn1c(NCCCl)nc2ccccc21)c1ccc(Br)cc1,"inconclusive: 35.5 µM [inhibitor, partial curve, poor fit]"
11,COc1cc(/C=C2\C(=O)NC(=O)N(c3ccccc3)C2=O)cc(OC)c1OC,"inconclusive: 50.1 µM [inhibitor, partial curve, poor fit]"
12,CCOc1cc2c(cc1OCC)-n1cccc1C(c1cccc(F)c1F)NC2 (centres undefined),"inconclusive: 44.7 µM [inhibitor, partial curve, poor fit]"
13,O=C1NC(=O)C(=Cc2ccccc2Oc2ccc(F)cc2)C(=O)N1,"inconclusive: 79.4 µM [inhibitor, partial curve, poor fit]"
14,COc1ccc(CN2C(=O)CC(=O)NC2=S)cc1,active: 44.7 µM
15,COc1ccc(-n2c(O)c(/C(C)=N/Nc3ccccc3)c(=O)[nH]c2=O)cc1,"inconclusive: 25.1 µM [inhibitor, single point]"
16,CCOc1ccc(CNCCc2c[nH]c3ccccc23)cc1,"inconclusive: 28.2 µM [inhibitor, partial curve, poor fit]"
17,Cc1cccnc1NC1=NCC(C)S1 (centres undefined),inactive
18,O=[N+]([O-])c1ccc(-[n+]2c(-c3ccccc3)cc(-c3ccccc3)cc2-c2ccccc2)cc1,"inconclusive: 89.1 µM [inhibitor, single point]"
19,COc1ccc2[nH]c(C)c(CCN3CCC(=O)C(C)C3C)c2c1 (centres undefined),"inconclusive: 0.794 µM [inhibitor, full curve, poor fit]"
20,C[C@]12CCC(=O)C=C1C=CC1C2CC[C@@]2(C)C1CC[C@@H]2O (some centres undefined),"inconclusive: 100 µM [inhibitor, single point]"
21,Cc1ccc(/C=C2\C(=O)NC(=S)N(c3ccc(F)cc3)C2=O)o1,"inconclusive: 7.94 µM [inhibitor, partial curve, poor fit]"
22,COc1ccc(CCNCc2cccc(Br)c2)cc1,active: 1.26 µM
